This assay addresses T1, Orc2p (S. cerevisiae (endogenous in yeast cells)), P32833.
T1 chain: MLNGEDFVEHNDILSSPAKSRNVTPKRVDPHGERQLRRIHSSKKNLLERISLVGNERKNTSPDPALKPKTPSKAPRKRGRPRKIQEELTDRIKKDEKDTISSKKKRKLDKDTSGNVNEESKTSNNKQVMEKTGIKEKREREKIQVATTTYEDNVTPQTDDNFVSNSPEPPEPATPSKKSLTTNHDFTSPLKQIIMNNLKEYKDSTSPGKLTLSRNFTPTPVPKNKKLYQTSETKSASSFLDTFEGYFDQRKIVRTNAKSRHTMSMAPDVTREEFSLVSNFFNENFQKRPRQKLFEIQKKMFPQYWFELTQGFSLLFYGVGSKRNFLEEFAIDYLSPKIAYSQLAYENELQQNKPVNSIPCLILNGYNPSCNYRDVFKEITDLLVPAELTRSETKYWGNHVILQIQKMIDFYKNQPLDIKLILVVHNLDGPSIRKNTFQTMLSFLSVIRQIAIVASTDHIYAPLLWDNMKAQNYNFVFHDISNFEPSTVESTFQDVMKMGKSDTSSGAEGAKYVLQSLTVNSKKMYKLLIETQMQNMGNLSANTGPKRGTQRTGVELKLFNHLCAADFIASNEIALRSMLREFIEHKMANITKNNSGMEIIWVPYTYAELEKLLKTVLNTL
In words: co-IP; endogenous proteins in sonicated whole cell lysates of exponentially growing yeast; antibody (Orc1, Orc2, Cdc6, 4H8, H5 or 8GW16) then protein A or protein G beads, 2 hours at 4°C, 4 washes with IP buffer; western blot. Particulars: remark: other sources report otherwise. Background: A western blot detects proteins with antibodies after separation by electrophoresis.

No constants are given. Whether binding was seen depends on the method and setting. In cells and extracts the contact can be indirect. Some binding calls cover weakened binding; strength is not graded here.

B1: Orc1p, P54784 1-914 (protein)
chain: MAKTLKDLQGWEIITTDEQGNIIDGGQKRLRRRGAKTEHYLKRSSDGIKLGRGDSVVMHNEAAGTYSVYMIQELRLNTLNNVVELWALTYLRWFEVNPLAHYRQFNPDANILNRPLNYYNKLFSETANKNELYLTAELAELQLFNFIRVANVMDGSKWEVLKGNVDPERDFTVRYICEPTGEKFVDINIEDVKAYIKKVEPREAQEYLKDLTLPSKKKEIKRGPQKKDKATQTAQISDAETRATDITDNEDGNEDESSDYESPSDIDVSEDMDSGEISADELEEEEDEEEDEDEEEKEARHTNSPRKRGRKIKLGKDDIDASVQPPPKKRGRKPKDPSKPRQMLLISSCRANNTPVIRKFTKKNVARAKKKYTPFSKRFKSIAAIPDLTSLPEFYGNSSELMASRFENKLKTTQKHQIVETIFSKVKKQLNSSYVKEEILKSANFQDYLPARENEFASIYLSAYSAIESDSATTIYVAGTPGVGKTLTVREVVKELLSSSAQREIPDFLYVEINGLKMVKPTDCYETLWNKVSGERLTWAASMESLEFYFKRVPKNKKKTIVVLLDELDAMVTKSQDIMYNFFNWTTYENAKLIVIAVANTMDLPERQLGNKITSRIGFTRIMFTGYTHEELKNIIDLRLKGLNDSFFYVDTKTGNAILIDAAGNDTTVKQTLPEDVRKVRLRMSADAIEIASRKVASVSGDARRALKVCKRAAEIAEKHYMAKHGYGYDGKTVIEDENEEQIYDDEDKDLIESNKAKDDNDDDDDNDGVQTVHITHVMKALNETLNSHVITFMTRLSFTAKLFIYALLNLMKKNGSQEQELGDIVDEIKLLIEVNGSNKFVMEIAKTLFQQGSDNISEQLRIISWDFVLNQLLDAGILFKQTMKNDRICCVKLNISVEEAKRAMNEDETLRNL
B1: the binding result is given as “no binding”.

B2: Cdc6p, P09119 1-513 (protein)
chain: MSAIPITPTKRIRRNLFDDAPATPPRPLKRKKLQFTDVTPESSPEKLQFGSQSIFLRTKALLQKSSELVNLNSSDGALPARTAEYEQVMNFLAKAISEHRSDSLYITGPPGTGKTAQLDMIIRQKFQSLPLSLSTPRSKDVLRHTNPNLQNLSWFELPDGRLESVAVTSINCISLGEPSSIFQKIFDSFQDLNGPTLQIKNMQHLQKFLEPYHKKTTFVVVLDEMDRLLHANTSETQSVRTILELFLLAKLPTVSFVLIGMANSLDMKDRFLSRLNLDRGLLPQTIVFQPYTAEQMYEIVIQKMSSLPTIIFQPMAIKFAAKKCAGNTGDLRKLFDVLRGSIEIYELEKRFLLSPTRGSLNSAQVPLTPTTSPVKKSYPEPQGKIGLNYIAKVFSKFVNNNSTRTRIAKLNIQQKLILCTIIQSLKLNSDATIDESFDHYIKAITKTDTLAPLQRNEFLEICTILETCGLVSIKKTKCKGKTKRFVDKIDVDLDMREFYDEMTKISILKPFLH
For the molecule B2, the binding entry was “binds”.
